Assay results from patent US20220202799A1, “PHARMACEUTICAL FORMULATIONS CONTAINING P2Y14 ANTAGONISTS” (priority 2019, published 2022).
At least one read-out could not be matched to a standard name with certainty.

Assays:
[1] = Solubility of PPTN at pH ranges suitable for intravenous injection; type: physicochemical; conditions: 24 hours
Experimental: The solubility of PPTN at pH ranges suitable for intravenous injection was analyzed. PPTN (HCl salt) was dissolved in DMSO to make a stock solution, and the stock solution was diluted into various aqueous solutions. […] The solutions were then adjusted to achieve a pH ≥5.0, and the solutions were observed again.

[2] = Loss of PPTN due to adherence to surfaces of vessels; type: physicochemical; conditions: 5 mg/mL PPTN, 0.1% DMSO, 0.04% TPGS in phosphate-buffered saline, 16-24 hours
Experimental: The loss of PPTN due to adherence to surfaces of vessels was analyzed. PPTN is a hydrophobic compound that may adhere to plastics and other surfaces. To test how much PPTN is lost due to surface adhesion, an aqueous solution containing 200 ng/ml PPTN and less than 0.1% acetonitrile was incubated in the absence of solubilizing agent in various vessels for 24 hours. […]

**Q.** For `O=C(O)c1cc(-c2ccc(C3CCNCC3)cc2)c2ccc(-c3ccc(C(F)(F)F)cc3)cc2c1` [KB-1801, 4-[4-(piperidin-4-yl)phenyl]-7-[4-(trifluoromethyl)phenyl]-2-naphthoic acid], which “% recovery” value ([1]; 0.015 mg/mL (~29 μM), 1.5 mg DMSO stock solution diluted 100x in water, pH 4-5) is on record?
**A.** The value was 86%.

**Q.** What about the “% recovery” value ([1]; 5.0 mg/mL, 1.5 mg DMSO stock solution diluted 100x in PBS (20 mM), pH 5-6) of the same compound?
**A.** The value was 0.12%.

**Q.** And the “% recovery” value ([2]; glass scintillation vial)?
**A.** The value was 98%.

**Q.** What about the “% recovery” value ([2]; plastic vial) of the same compound?
**A.** The value was 116%.

**Q.** What about the “% recovery” value ([2]; polyetheretherketone tubing) of the same compound?
**A.** The value was 105%.
